The record followed here is publication PMC10163288.

Some of the results follow.

B1: il10ra_site1_normal_mot_HHH_b2_08144_af2_000000046_0001_38_52_H_._HHH_b2_05514_af2_0001_0000300004_0000001_0_af2pred_0001 (protein)
chain: SSSSSSSDEARRIIELLREALQIEDPEEARELVEEAEELAEEINNRLLLLIARFLLKQLSSSSSS
B2: il10ra_site1_sap_33_mot_HHH_b1_06174_af2_000000107_0001_40_57_H_._HHH_b1_05284_0001_0000300018_0000001_0_0001 (protein)
chain: SSSSTLAQEVYELLRRAAELLDEGDKEEAEKLLEEARRLAEEAGSMLLRVQVEFLERQIENSSSS
B3: il10ra_site1_normal_mot_HHH_b2_08144_af2_000000046_0001_38_52_H_._HHH_b1_03926_af2_0001_0000100003_0000001_1_af2pred_0001 (protein)
chain: SSSSSDRERIAELLRRAAEAFADGNPEEAEELVEEALELAQERNNELLAFIAEFLLRIVRSSSSS
B4: il10ra_site1_normal_mot_HHH_b2_05548_000000224_0001_41_54_H_._HHH_b2_03931_0001_0000100013_0000001_0 (protein)
chain: SSSSSDEEELERLTKELEEALKEGDERLVAKLTTKLFDLVARTRDEEAQEVVRRAVEFLNSSSSS
B5: il10ra_site1_sap_15_mot_HHH_b2_03330_000000161_0001_1_19_H_._HHH_b1_05293_0001_0000400012_0000001_0_0001 (protein)
chain: SSSDEAYRLVEKAIKEVIELWEKGNPEEAQRLLEEVEERLEELNNIVALWAIRHLLELLRRSSSS
B6: il10ra_site1_sap_22_mot_HHH_b1_08477_000000091_0001_40_57_H_._3c52c70cb82747e000e16ffcb2ba7c63_0001_0001_0000100004_0000002_0_0001 (protein)
chain: SSSSSDVAEIAQRALRAAYQKGDEEGLQEIWRIIEAAARGEISEEEASERLEEILERLESSSSSS
B7: il10ra_site1_sap_30_mot_HHH_b1_06828_af2_000000004_0001_41_57_H_._HHH_b1_01454_0001_0000400012_0000001_0_0001 (protein)
chain: SSSSDEERVRELIEEAEELAERGNPREAARVIQEAVRIAYQAKNPELLRALWRVVKELANSSSSS
B8: il10ra_site1_sap_21_mot_HHH_b2_00230_000000227_0001_1_19_H_._HHH_b2_04280_0001_0000100004_0000002_0_0001 (protein)
chain: SSSSDKEARELIEALLRIAKQAYENGDEEAAEFLLWAAKHLAEELGDEELQREIEELEEEISSSS
B9: il10ra_site1_normal_mot_e933875d0a4b1ebfe8e667f01481c16a_0001_1_af2_000000222_0001_49_63_H_._HHH_b2_03305_0001_0000100003_0000002_0_af2pred_0001 (protein)
chain: SSSSSDVTERLIRLSRRALELLNEGNPEEAEKLLEEAFELAEENNDLNTLAVIEFLLERVSSSSS
B10: il10ra_site1_sap_18_mot_ems_3hC_416_0001_000000048_0001_1_19_H_._HHH_b2_08039_af2_0001_0000200020_0000001_0_0001 (protein)
chain: SSSSDESYEIARRVIEELIELFREGDPEEAERLVEEAEKELKELGDRIALLVLKWLFREEKSSSS
B11: il10ra_site1_sap_25_mot_HHH_b1_04015_af2_000000074_0001_1_17_H_._HHH_b2_05022_af2_0001_0000200016_0000002_0_0001_af2pred_0001 (protein)
chain: SSSSNEEAEISTRFELRLARIAAELGDPELARFALRSAESLLRREGDEELLKEVEELLEEISSSS
B12: il10ra_site1_sap_15_mot_HHH_b1_00456_000000263_0001_1_17_H_._HHH_b1_05058_af2_0001_0000100002_0000001_0_0001 (protein)
chain: SSSSSEANREIYELLREAVELDHEGDPEEAEEVLREAQEIAEENNNRVLLALIEWLLKRIGSSSS
B13: il10ra_site1_normal_mot_e1dd4851c59bc1cdde016f988f6856bd_0001_1_000000200_0001_16_31_H_._HEEHE_2724_af2_0001_0000200008_0000001_0_af2pred_0001 (protein)
chain: SDEERFRLAVENAAELAGVEDVEVERENGEFEVTIHADSPAARELERMVRFIALILNVEVEVEIR
B14: il10ra_site1_normal_mot_HHH_b2_03220_af2_000000223_0001_23_40_H_._HHH_b1_08461_0001_0000200033_0000001_0 (protein)
chain: SSSSTEENERIWELLRRVLELAANGNPEEAQEVLEEARELVEEANNRLLRFNVRILEEHLRSSSS
B15: il10ra_site1_normal_mot_HHH_b1_08172_af2_000000028_0001_1_19_H_._HHH_b1_08627_af2_0001_0000200012_0000002_0 (protein)
chain: SSSSSDEVYEEIKELIEKANELARRGDKEEARKVLEEARELAEEAGSEVLRWTIEYLERRISSSS
B16: il10ra_site1_sap_27_mot_HHH_b2_02736_000000092_0001_22_38_H_._HHH_b1_04545_af2_0001_0000600044_0000001_0_0001 (protein)
chain: SSSSSEEEQELLELIHEVIELMLRGDEEELRELLERALELAEKLNDERAALNLRSLLEILSSSSS
B17: il10ra_site1_normal_mot_HHH_b1_05357_000000034_0001_23_39_H_._HHH_b1_01999_0001_0000200009_0000001_1_af2pred_0001 (protein)
chain: SSSSDEEELEELEEEVKELVRRGDPHEAAYLVLRAFAIALKLNDPELKRRVRELAELVLDSSSSS
B18: il10ra_site1_normal_mot_HHH_b2_00273_000000062_0001_23_39_H_._HHH_b1_02145_af2_0001_0000400021_0000001_0 (protein)
chain: SSSDREEFLRLAQKALQLAFRLRDEETLQLLWELIKRYAEHNDPELLEELERLVEELEELATSSS
B19: il10ra_site1_normal_mot_HHH_b1_03353_af2_000000170_0001_1_18_H_._HHH_b1_01603_0001_0000200017_0000001_0 (protein)
chain: SSSSDEEEEFEELFERIEELIRQGDPHEAYELLRELAELAAEIGDPELQRLVLELARRLSSSSSS
B20: il10ra_site1_normal_mot_HHH_b2_08186_000000021_0001_43_56_H_._HHH_b1_00125_0001_0000100002_0000001_0 (protein)
chain: SSSSSSDLEEEIEELLEELKQISDPERFAEVARRVLRLIYELGDEELLQELWEILKRLSSSSSSS
B21: il10ra_site1_normal_mot_HHH_b2_06786_000000018_0001_41_57_H_._HHH_b1_02372_af2_0001_0000300019_0000001_0 (protein)
chain: SSSSSVEERASEVAAEVARIAFRLNNPEILQEVWELFKRIIREGDPELLKELEELLEELRSSSSS
B22: il10ra_site1_sap_14_mot_HHH_b2_00315_000000062_0001_1_19_H_._220949193216051a94ae8351480a38c9_0001_0001_0000500009_0000002_0_0001 (protein)
chain: SSSSSDISEELQELIREAMELDTEGNPEEARKVAEEAQELAEEAGNRLFEVVIRFVLELISSSSS
B23: il10ra_site1_sap_21_mot_HHH_b2_02053_af2_000000006_0001_3_19_H_._HHH_b1_00300_0001_0000300025_0000001_0_0001_af2pred_0001 (protein)
chain: SSSSTDKHLLEVAMEILRLALEQGDEELAERIIKQLELQIKLTNDEEAQEELEELKRLLESSSSS
B24: il10ra_site1_sap_24_mot_HHH_b1_06881_000000226_0001_1_19_H_._HHH_b2_02204_0001_0000100005_0000002_0_0001 (protein)
chain: SSSSSLLERALRFWERMLEQAQERNDEESLKQLLMALEFIAKEANDEEAKEVVEEIREEFSSSSS

This experiment addresses il10ra, Q13651. The experiment can be described thus: yeast display titration.
For the molecule B1, the “apparent Kd” value was “inactive: no binding seen”.

Take B2: the “apparent Kd” value was “inactive: no binding seen”.

For B3, the “apparent Kd” value is “inactive: no binding seen”.

Regarding B4, the “apparent Kd” value was “inactive: no binding seen”.

Consider B5, for which the “apparent Kd” value was “inactive: no binding seen”.

B6: the “apparent Kd” value was “inactive: no binding seen”.

For the molecule B7, the “apparent Kd” value was “inactive: no binding seen”.

Consider B8, for which the “apparent Kd” value was “inactive: no binding seen”.

As to B9, the “apparent Kd” value was “inactive: no binding seen”.

On to B10, for which the “apparent Kd” value was “inactive: no binding seen”.

Turning to B11, the “apparent Kd” value was “inactive: no binding seen”.

Take B12: the “apparent Kd” value was “inactive: no binding seen”.

Turning to B13, the “apparent Kd” value is “inactive: no binding seen”.

In the case of B14, the “apparent Kd” value was “inactive: no binding seen”.

Regarding B15, the “apparent Kd” value is “inactive: no binding seen”.

For the molecule B16, the “apparent Kd” value is “inactive: no binding seen”.

For the molecule B17, the “apparent Kd” value is “inactive: no binding seen”.

As for B18, the “apparent Kd” value was “inactive: no binding seen”.

Regarding B19, the “apparent Kd” value was “inactive: no binding seen”.

As for B20, the “apparent Kd” value is “inactive: no binding seen”.

As to B21, the “apparent Kd” value was “inactive: no binding seen”.

Consider B22, for which the “apparent Kd” value is “inactive: no binding seen”.

On to B23, for which the “apparent Kd” value is “inactive: no binding seen”.

Consider B24, for which the “apparent Kd” value is “inactive: no binding seen”.
